From ChEMBL document CHEMBL3988442, “University of Dundee, Small-Polar-MMV Screening Library” (2021).

Results are given as percent effect.
How 0% and 100% were set is not recorded. Most values in the screen are low, and negative values occur.
This is an unselected part of the compounds tested.
Two or more numbers in one place are separate tests of the same structure; such repeats can differ widely.

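Phenotypic screen: M. tuberculosis growth, glucose 7H9 medium, 3 days; the read-out is not stated. Concentration: 50 µM. Direction is inferred from retests: higher values go with more growth inhibition. About 69,000 compounds were tested under these conditions; 1.1% (about 760) showed 50% or more at least once.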

{"compound": "CCN(CC(C)C#N)C(=O)CSc1ccc(C(F)(F)F)cn1", "stereo": "stereo not shown", "effect": "-6.387 & 17.01"}
{"compound": "CC(CO)NC(=O)c1ccc(NCc2cc(C#N)ccc2F)cc1", "stereo": "stereo not shown", "effect": 1.654}
{"compound": "Cc1[nH]c(-c2ccccc2)nc1C(=O)N1CCc2[nH]cnc2C1C(=O)O", "stereo": "stereo not shown", "effect": -24.33}
{"compound": "CC1CN(CC(=O)NC2CCOCC2)CCN1Cc1nccn1C", "stereo": "stereo not shown", "effect": -0.1114}
{"compound": "Cc1cccc(COc2ccc(NC(=O)C(C)NC(N)=O)c(C)c2)c1", "stereo": "stereo not shown", "effect": 16.29}
{"compound": "Cn1cnc2c1CCN(CCS(=O)(=O)c1ccccc1)C2", "effect": 9.34}
{"compound": "Cc1nn(C)c(C)c1NC(=O)CN1CCCC1c1noc(C(C)C)n1", "stereo": "stereo not shown", "effect": -8.792}
{"compound": "Cc1cc(C(C)NC(=O)c2c[nH]c(=O)c(Cl)c2)c(C)o1", "stereo": "stereo not shown", "effect": 25.33}
{"compound": "CCc1nc(NC2CCN(CC(=O)NC3CC3)CC2)c2cnn(C)c2n1", "effect": -29.7}
{"compound": "c1ccc(-c2nnc(CNCC3CCCN3c3cccnn3)o2)cc1", "stereo": "stereo not shown", "effect": -13.01}
{"compound": "CN(Cc1csc2ccccc12)C(=O)NC1CCS(=O)(=O)C1", "stereo": "stereo not shown", "effect": "-14.66 & -3.177"}
{"compound": "COc1ccccc1-c1nnc([C@H]2CCN(C(=O)C3CC3)C2)o1", "effect": "-10.5 & -2.548"}
{"compound": "CCOC1COC2(CCN(c3ncc(C)cn3)CC2)C1", "stereo": "stereo not shown", "effect": 26.22}
{"compound": "CN(C)CCCn1ccc(-c2cccc(-c3cncnc3)c2)n1", "effect": "8.059 & 0.1967"}
{"compound": "CCSC(C)C(=O)N1CCC(c2nn(C)c(=O)n2-c2ccccc2)CC1", "stereo": "stereo not shown", "effect": "2.439 & 9.15"}
{"compound": "CC(Cn1cccn1)NCc1csc(-c2ncccn2)n1", "stereo": "stereo not shown", "effect": -27.26}
{"compound": "O=C(O)c1csc(S(=O)(=O)N2CCCc3cc(OC(F)F)ccc32)c1", "effect": 20.63}
{"compound": "CN1CCCN(CCCNC2CCc3cc4c(cc32)OCCO4)CC1", "stereo": "stereo not shown", "effect": 29.46}
{"compound": "Cc1cc(NCC2(O)CCOCC2)c2ccccc2n1", "effect": 18.33}
{"compound": "Cc1nc(C2CCCN2Cc2nnc(C3CC3)o2)no1", "stereo": "stereo not shown", "effect": -19.76}
{"compound": "CCCN1C(=O)CC(N2CCN(c3ccc(F)cc3)CC2)C1=O", "stereo": "stereo not shown", "effect": "-11.76 & -11.76"}
{"compound": "CS(=O)(=O)NCCC(=O)NC1(c2ccc(F)cc2)CCCC1", "effect": -18.19}
{"compound": "Cn1ccnc1CN1CCOC(C)(C(=O)N2CCOCC2)C1", "stereo": "stereo not shown", "effect": 9.372}
{"compound": "CCCn1cnnc1CN(C)C(=O)C1CCCN(C2CCN(C)CC2)C1", "stereo": "stereo not shown", "effect": 5.446}
{"compound": "O=S(=O)(c1ccccc1)N1CCN(CCn2ccnc2)CC1", "effect": "-21.97 & -2.421"}
{"compound": "Cc1ccc(NC(=O)NCCc2ccncc2C)c(N(C)C)n1", "effect": -11.34}
{"compound": "COc1ccc(C(=O)N2Cc3cc(C)ccc3OCC2CN(C)C)cc1.Cl", "stereo": "stereo not shown", "effect": 16.93}
{"compound": "Cc1ccc2c(c1)SCC(=O)N2Cc1noc(C2CC2)n1", "effect": "-7.125 & -3.703"}
{"compound": "CCN(CC)c1ccc(C(=O)N2CCCC2Cn2cc(C)cn2)cn1", "stereo": "stereo not shown", "effect": -35.26}
{"compound": "CCc1nnc(SCC(=O)Nc2cc(C(C)(C)C)nn2C)[nH]1", "effect": "-5.116 & -5.638"}
{"compound": "Cc1cnccc1CN1CC[C@@](C)(O)[C@H](Oc2cccc(F)c2)C1", "effect": -2.079}
{"compound": "Cc1n[nH]c(C2CN(C(=O)c3ccnc(C4CC4)n3)CCO2)n1", "stereo": "stereo not shown", "effect": 21.56}
{"compound": "Cc1noc(C)c1CC(=O)N1CC[C@@](C)(O)[C@H](Oc2ccccc2)C1", "effect": -3.188}
{"compound": "COC[C@]1(O)CCN(Cc2cnc(N(C)C)nc2)CC1(C)C", "effect": -5.071}
{"compound": "Cc1ccc(F)cc1-n1c(CCCN2CCOCC2)n[nH]c1=O", "effect": "-1.546 & -12.17"}
{"compound": "Cc1cccc(C(C(=O)NCCCc2ccccn2)N(C)C)c1", "stereo": "stereo not shown", "effect": -11.74}
{"compound": "Cc1noc(-c2ccnc(Oc3cccc(CN4CCCC4)c3F)c2)n1", "effect": 17.08}
{"compound": "Cc1noc(C)c1CCCNC(=O)C1CCN(C(=O)C2CC2)CC1", "effect": 3.129}
{"compound": "NC(=O)CN1CCCC(CCCc2ccccn2)(C(N)=O)C1", "stereo": "stereo not shown", "effect": -12.34}
{"compound": "CN1CCN(c2cc(CNC(=O)c3cnccn3)ccn2)CC1", "effect": -25.63}
{"compound": "Cc1ccsc1CN(CCN(C)C)C(=O)c1ccc(C#N)nc1", "effect": "-3.997 & 5.169"}
{"compound": "CC(C)N(CC(N)=O)C(=O)CCC(=O)c1ccc(F)cc1F", "effect": -19.59}
{"compound": "Cc1nn(C)c2c(N3CCC(C)CC3)nc(C3CC3)nc12", "effect": "-13.95 & -1.243"}
{"compound": "CCN(C)Cc1cccc(CNC(=O)CSCc2ccccn2)c1", "effect": -1.929}
{"compound": "CN(CC1(O)CCCN(c2ccccn2)C1)C(=O)CC1CCOCC1", "stereo": "stereo not shown", "effect": -1.153}
{"compound": "Cc1noc(C2CCN(C(=O)CCNc3ncccn3)CC2)n1", "effect": -13.63}
{"compound": "CN(CCCOc1ccccc1)Cc1nc2c(cnn2C)c(=O)[nH]1", "effect": -7.653}
{"compound": "O=C(O)C(F)(F)F.O=C(O)C(F)(F)F.[H][C@]12CCN(c3ncc(C)cn3)[C@@]1([H])CC[C@@H](COCc1ccccn1)O2", "effect": -19.75}
{"compound": "CC(NC(=O)Nc1nccs1)c1ccc(S(C)(=O)=O)cc1", "stereo": "stereo not shown", "effect": 23.91}
{"compound": "Cc1cc(CN2CCC(N(C)Cc3nnc(C4CC4)n3C)C2)on1", "stereo": "stereo not shown", "effect": "6.06 & -2.313"}
{"compound": "CNCc1ccc([C@@H]2CN(C(C)=O)C[C@H]2C(=O)N(C)C)cc1.Cl", "effect": -8.539}
{"compound": "Cn1cc(N2CC3(COCCN(Cc4ccsc4)C3)OCC2=O)cn1.O=C(O)C(F)(F)F", "stereo": "stereo not shown", "effect": -21.11}
{"compound": "COc1ccc(OCc2noc(CN(C)C3CCS(=O)(=O)C3)n2)cc1", "stereo": "stereo not shown", "effect": "-2.424 & -3.593"}
{"compound": "Cc1ccc(F)c(C(=O)Nc2cccc(CCN3CCCC3)c2)c1", "effect": "20.81 & 44.25"}
{"compound": "COC(=O)c1ccc(C2SCC(=O)Nc3ccsc32)cc1", "stereo": "stereo not shown", "effect": 10.22}
{"compound": "CN(c1ccncn1)C1CC2(CCN(C(=O)c3ccsc3)C2)C1", "stereo": "stereo not shown", "effect": 14.32}
{"compound": "O=C(NCCOc1ccc2c(c1)OCO2)C1CC(=O)N(CC2CC2)C1", "stereo": "stereo not shown", "effect": -17.19}
{"compound": "O=c1c2ccccc2nc2n1C(CSc1ccc(Cl)cc1)CN2", "stereo": "stereo not shown", "effect": "25.39 & 4.566"}
{"compound": "CCOC(=O)N1CCC(NC(C)Cc2cc(C)n[nH]2)CC1", "stereo": "stereo not shown", "effect": -25.49}

Repeated from the top, 3 entries:

Compound,effect
CCN(CC(C)C#N)C(=O)CSc1ccc(C(F)(F)F)cn1 (stereo not shown),-6.387% & 17.01%
CC(CO)NC(=O)c1ccc(NCc2cc(C#N)ccc2F)cc1 (stereo not shown),1.654%
Cc1[nH]c(-c2ccccc2)nc1C(=O)N1CCc2[nH]cnc2C1C(=O)O (stereo not shown),-24.33%